Assay results taken from patent US10905739B2, “Peptidomimetic macrocycles and formulations thereof” (AILERON THERAPEUTICS, INC., priority 2014, dated 2021).

Amino acid sequences for entries named in this document (tags omitted).
UniProt Q00987, whole entry: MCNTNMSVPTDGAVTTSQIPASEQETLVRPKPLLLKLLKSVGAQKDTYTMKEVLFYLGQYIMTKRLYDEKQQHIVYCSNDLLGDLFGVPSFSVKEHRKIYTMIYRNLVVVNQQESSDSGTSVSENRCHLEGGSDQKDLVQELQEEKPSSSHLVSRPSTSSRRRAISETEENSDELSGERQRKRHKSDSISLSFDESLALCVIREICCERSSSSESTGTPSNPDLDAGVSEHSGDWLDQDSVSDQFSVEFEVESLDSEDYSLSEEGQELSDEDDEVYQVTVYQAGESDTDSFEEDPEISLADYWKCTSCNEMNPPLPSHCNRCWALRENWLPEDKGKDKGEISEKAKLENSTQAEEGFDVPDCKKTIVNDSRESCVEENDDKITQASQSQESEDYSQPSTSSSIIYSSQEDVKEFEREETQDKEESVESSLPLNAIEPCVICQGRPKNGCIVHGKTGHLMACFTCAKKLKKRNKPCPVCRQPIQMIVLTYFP

Molecular target: MDM2 (Homo sapiens, UniProt Q00987)
Experiment: MDM2 binding IC50/Ki (in vitro displacement, fluorescence polarization)

CC(=O)N[C@@H](C(=O)N[C@H](C)C(=O)N[C@H](Cc1c[nH]c2ccccc12)C(=O)N[C@H](Cc1ccc(O)cc1)C(=O)N[C@@]1(C)CCCCCCC=CCCC[C@](C)(C(=O)N[C@H](C)C(N)=O)NC(=O)[C@@H](CC(C)C)NC(=O)[C@@H](CC(C)C)NC(=O)[C@@H](CCCCN)NC(=O)[C@@H](CCC(=O)O)NC(=O)[C@@H](Cc2ccc(C(F)(F)F)cc2)NC(=O)[C@@H](CC(N)=O)NC1=O)[C@H](C)O [SP757, Ac-tawy$s8nf4CF3ekll$r5a-NH2]
Ki: 2.92 nM
